No constants are given. Whether binding was seen depends on the method and setting. In cells and extracts the contact can be indirect. These calls come from enrichment with a bait or labelling near it, and not all partners need be listed.

Sequences of proteins named here, by UniProt entry; tags and fusion partners are left off.
UniProt P32558: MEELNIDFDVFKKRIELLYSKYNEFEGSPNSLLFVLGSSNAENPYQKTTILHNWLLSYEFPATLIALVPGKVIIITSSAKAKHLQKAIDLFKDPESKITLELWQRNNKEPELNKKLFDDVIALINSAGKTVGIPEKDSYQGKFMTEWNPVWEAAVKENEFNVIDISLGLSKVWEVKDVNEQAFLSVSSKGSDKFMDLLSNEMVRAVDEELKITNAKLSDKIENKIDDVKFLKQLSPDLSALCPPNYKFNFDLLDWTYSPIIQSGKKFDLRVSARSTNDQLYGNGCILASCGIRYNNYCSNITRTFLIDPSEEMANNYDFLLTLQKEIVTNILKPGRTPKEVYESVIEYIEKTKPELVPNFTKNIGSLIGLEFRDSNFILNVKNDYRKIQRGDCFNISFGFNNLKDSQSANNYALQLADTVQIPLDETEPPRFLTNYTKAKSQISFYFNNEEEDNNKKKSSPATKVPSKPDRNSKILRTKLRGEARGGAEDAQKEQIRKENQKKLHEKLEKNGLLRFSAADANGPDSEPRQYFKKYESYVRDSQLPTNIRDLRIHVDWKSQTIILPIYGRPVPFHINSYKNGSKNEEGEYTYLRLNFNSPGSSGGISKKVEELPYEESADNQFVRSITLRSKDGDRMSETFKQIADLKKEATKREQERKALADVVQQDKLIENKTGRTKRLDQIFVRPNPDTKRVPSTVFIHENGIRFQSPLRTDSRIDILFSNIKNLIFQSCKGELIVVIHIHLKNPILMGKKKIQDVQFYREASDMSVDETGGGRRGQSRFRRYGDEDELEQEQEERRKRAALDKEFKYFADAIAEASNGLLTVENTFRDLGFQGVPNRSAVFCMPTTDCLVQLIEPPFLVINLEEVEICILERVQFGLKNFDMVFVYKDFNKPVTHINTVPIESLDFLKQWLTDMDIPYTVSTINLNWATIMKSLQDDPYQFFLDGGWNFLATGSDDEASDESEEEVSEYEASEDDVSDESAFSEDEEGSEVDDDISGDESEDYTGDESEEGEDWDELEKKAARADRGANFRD

Data on one molecule can be found in paper PMC10681723.

This assay deals with TAP-tagged Spt16 (Spt16-TAP), wild type (budding yeast (S. cerevisiae)) (UniProt P32558). As to the kind of experiment: affinity purification with mass spectrometry; tandem affinity purification of wild-type Spt16 or Spt16-ΔN from yeast cells, SDS-PAGE, label-free quantitative mass spectrometry, n = 3.

B1: Mcm5 (protein, UniProt P29496 1-775)
chain: MSFDRPEIYSAPVLQGESPNDDDNTEIIKSFKNFILEFRLDSQFIYRDQLRNNILVKNYSLTVNMEHLIGYNEDIYKKLSDEPSDIIPLFETAITQVAKRISILSRAQSANNNDKDPENTSMDTDSLLLNSLPTFQLILNSNANQIPLRDLDSEHVSKIVRLSGIIISTSVLSSRATYLSIMCRNCRHTTSITINNFNSITGNTVSLPRSCLSTIESESSMANESNIGDESTKKNCGPDPYIIIHESSKFIDQQFLKLQEIPELVPVGEMPRNLTMTCDRYLTNKVIPGTRVTIVGIYSIYNSKNGAGSGRSGGGNGGSGVAIRTPYIKILGIQSDVETSSIWNSVTMFTEEEEEEFLQLSRNPKLYEILTNSIAPSIFGNEDIKKAIVCLLMGGSKKILPDGMRLRGDINVLLLGDPGTAKSQLLKFVEKVSPIAVYTSGKGSSAAGLTASVQRDPMTREFYLEGGAMVLADGGVVCIDEFDKMRDEDRVAIHEAMEQQTISIAKAGITTVLNSRTSVLAAANPIYGRYDDLKSPGDNIDFQTTILSRFDMIFIVKDDHNEERDISIANHVINIHTGNANAMQNQQEENGSEISIEKMKRYITYCRLKCAPRLSPQAAEKLSSNFVTIRKQLLINELESTERSSIPITIRQLEAIIRITESLAKLELSPIAQERHVDEAIRLFQASTMDAASQDPIGGLNQASGTSLSEIRRFEQELKRRLPIGWSTSYQTLRREFVDTHRFSQLALDKALYALEKHETIQLRHQGQNIYRSGV
For B1, the binding entry is “binds”.
